Data from PubChem BioAssay AID2685 (National Center for Advancing Translational Sciences (NCATS), 2010).
This is one part of the list. The main result of the screen is listed elsewhere. These columns were measured beside it and carry no call. Most of these compounds were active or inconclusive in the main read-out, so they are no random draw. Potencies come from curve fits of mixed quality, noted in brackets.

Assay: qHTS Assay for Lipid Storage Modulators in Drosophila S3 Cells;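 for cell number change: cells counted by Cell Tracker Red CMTPX staining in the red channel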
Details: BODIPY lipid droplet fluorescence, 18-24 h; for cell number change: measured here: cell count max response, cells fed with added oleic acid
Procedure, shortened: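 Drosophila S3 cells got compounds at several concentrations plus oleic acid (400 uM solution). Laser-scanning cytometry with 488 nm excitation read lipid droplets at 500-530 nm and cells at 575-640 nm. Percent activity was relative to 20 uM Triacsin C.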

[1] = measured here: lipid fluorescence (Fed channel) AC50, cells fed with added oleic acid
[2] = measured here: cell number channel AC50, cells fed with added oleic acid

SMILES | cell number change [%] | AC50 [1] | AC50 [2]
CCOC(=O)c1c(Cc2ccccc2)c[nH]c1C | 13 |  | 
CN(CCO)S(=O)(=O)c1ccc2c(c1)C(=NO)c1cc(S(=O)(=O)N(C)CCO)ccc1-2 | 5.33 | 0.146 µM [falling, full curve, poor fit] | 
O=C(CSc1ccc(F)cc1)NC(=O)NCc1ccccc1 | -32.5 | 7.31 µM [rising, partial curve, poor fit] | 
CCOc1ccc(CCNC(=O)c2cc(S(=O)(=O)N3CCOCC3)ccc2C)cc1OCC | 19.9 | 29.1 µM [rising, single point] | 
Cc1ccccc1C(=O)N/N=C/c1ccc(Sc2ccccn2)o1 | -8.65 | 13 µM [falling, partial curve] | 4.11 µM [falling, partial curve, poor fit]
CCN(CC)S(=O)(=O)c1cccc(-c2nc3n(n2)Cc2ccccc2-3)c1 | -25.4 | 6.51 µM [falling, single point] | 
O=C(NNC(=S)Nc1ccccc1C(F)(F)F)c1ccc(Br)o1 | 13.4 | 20.6 µM [rising, single point] | 
Cc1ccccc1N(CC(=O)NCCSC1CCCCC1)S(=O)(=O)c1ccccc1 | 3.35 | 0.0517 µM [falling, full curve, poor fit] | 
O=C(Nc1ccc(C(=O)N2CCOCC2)cc1)c1ccc([N+](=O)[O-])cc1 | 12.5 | 1.16 µM [falling, single point] | 
CCCCCOC(=O)C1[C@H]2C(=O)N(CCCOC)C[C@]23C=C[C@H]1O3 (stereo not given in full) | -1.75 | 6.51 µM [rising, single point] | 
CC(NC(=O)C1CCN(S(=O)(=O)c2ccc3nc4c(c(C(=O)O)c3c2)CCCC4)CC1)c1ccccc1 (stereo not given) | -5.9 | 1.64 µM [rising, partial curve] | 
Cc1c(C(=O)Nc2ccc(Cl)cc2)c2ccccn2c1C(=O)c1ccc(F)cc1 | -2.08 | 0.517 µM [rising, single point] | 
Cc1cccc2cc(C#N)c(N3CCC(O)CC3)nc12 | 16.2 |  | 6.51 µM [rising, single point]
Cc1ccc(NC(=O)COC(=O)C2(c3ccc(Cl)cc3)CCCC2)cc1 | -20.9 | 2.91 µM [falling, partial curve] | 
Cc1cccc(NC(=S)NNc2cccc(Cl)c2)c1 | -13.3 | 29.1 µM [falling, partial curve, poor fit] | 
COc1ccccc1C(=O)NC(CCSC)C(=O)N1CCN(C(C)=O)CC1 (stereo not given) | 1.56 |  | 
O=C(CN1CCCCCC1)Nc1ccccc1F | -16.2 |  | 
Cc1ccc(NC(=O)CN2CCc3cc4c(cc3C2)OCCCO4)cc1C | -32.2 |  | 0.0058 µM [falling, full curve, poor fit]
O=C1C=CN(C(=O)Oc2ccccc2)CC1 | -1.23 | 0.731 µM [rising, full curve] | 
CCOC(=O)c1ccc(NC(=O)Cn2nnc(-c3ccccc3C)n2)cc1 | -4.94 |  | 
CC(C)(CO)NCc1cc(Br)ccc1OCc1ccccc1 | -11.3 | 29.1 µM [falling, single point] | 

SMILES | cell number change [%] | AC50 [1] | AC50 [2]
CC1CCCCN1C(=O)c1c(Cl)cnn1C (stereo not given) | -16.1 | 0.58 µM [rising, single point] | 
Cc1ccc(OCC(=O)NCCCNC(=O)c2ccccn2)cc1C | -8.75 | 9.2 µM [falling, single point] | 
CSc1ccccc1-c1nnc(-c2ccc(Cl)cc2Cl)o1 | -29 |  | 1.64 µM [falling, single point]
CC1(C(=O)NC(=S)N(CCC#N)Cc2cccnc2)CC1(Cl)Cl (stereo not given) | 63.7 |  | 29.1 µM [rising, single point]
Cc1[nH][nH]c(=O)c1C(c1ccc(-c2ccc(Cl)c(C(=O)O)c2)o1)c1c(C)[nH][nH]c1=O | -23.6 |  | 0.0326 µM [rising, full curve, poor fit]
CC(C)(C)c1ccc(NC(=O)Nc2ccc(F)cc2)cc1 | 8.92 |  | 
CC(C(=O)N(C)C1CCS(=O)(=O)C1)N1C(=O)/C(=C/c2ccco2)SC1=S (stereo not given) | -0.806 | 1.03 µM [falling, full curve] | 
O=C(Cc1ccccc1)NC(NCCCN1CCOCC1)(C(F)(F)F)C(F)(F)F | 2.53 | 5.8 µM [falling, single point] | 0.103 µM [rising, full curve]
CC1(C)CC(=O)C2=C(C1)N(Cc1ccc(F)cc1)C(=O)C2(NC(=O)c1cccnc1)C(F)(F)F (stereo not given) | 10.3 | 6.51 µM [rising, single point] | 
CCCCNCC#CCOc1cc(C)ccc1C(C)C | 22.9 |  | 
CCCn1c(N)c(N2CCCCC2)c(=O)n(CC(=O)Nc2ccc(OC(F)(F)F)cc2)c1=O | 23.1 | 6.51 µM [rising, partial curve, poor fit] | 
CC(C)C(NC(=O)COc1ccccc1)C(=O)O (stereo not given) |  | 25.9 µM [falling, partial curve] | 
O=C(NCc1ccccc1)c1c(O)c2ccccc2[nH]c1=O | 7.42 | 6.51 µM [rising, single point] | 
Cc1ccc(N2C(=S)NC3c4cc(Cl)ccc4OC2(C)C3C(=O)N(C)C)cc1 (stereo not given) |  | 0.00411 µM [falling, full curve, poor fit] | 
COc1ccc(C(=O)OCC(=O)Nc2nc3c(F)c(F)c(F)cc3s2)cc1OC |  | 6.51 µM [rising, single point] | 
COc1ccccc1CCc1nnc(CCC(=O)NCC[C@@H]2C[C@@H]3C=C[C@H]2C3)o1 | -48.1 | 20.6 µM [falling, partial curve] | 25.9 µM [falling, partial curve]
Cc1ccc(-c2nnn(Cc3nc(N)nc(N4CCOCC4)n3)n2)cc1 | -12.5 |  | 
Cc1ccc(C2C(C#N)=C(N)OC3=C2C(=O)CC(C)(C)C3)s1 (stereo not given) | -18.3 | 1.64 µM [falling, partial curve, poor fit] | 
O=C(CSc1nc2ccccc2[nH]1)N=Nc1c(O)[nH]c2ccccc12 | -12.7 | 18.4 µM [falling, single point] | 
COC(=O)c1ccc(OC(=O)c2ccco2)cc1 | 4.65 | 29.1 µM [falling, single point] | 
CCN(CC)CCCn1c(=S)[nH]c2cc(C(=O)OC)ccc2c1=O |  | 4.11 µM [falling, partial curve] | 

Part of the list above, as tab-separated lines.
SMILES	cell number change [%]	AC50 [1]	AC50 [2]
Cc1ccccc1N(CC(=O)NCCSC1CCCCC1)S(=O)(=O)c1ccccc1	3.35	0.0517 µM [falling, full curve, poor fit]	
O=C(Nc1ccc(C(=O)N2CCOCC2)cc1)c1ccc([N+](=O)[O-])cc1	12.5	1.16 µM [falling, single point]	
CCCCCOC(=O)C1[C@H]2C(=O)N(CCCOC)C[C@]23C=C[C@H]1O3 (stereo not given in full)	-1.75	6.51 µM [rising, single point]	
CC(NC(=O)C1CCN(S(=O)(=O)c2ccc3nc4c(c(C(=O)O)c3c2)CCCC4)CC1)c1ccccc1 (stereo not given)	-5.9	1.64 µM [rising, partial curve]	
Cc1c(C(=O)Nc2ccc(Cl)cc2)c2ccccn2c1C(=O)c1ccc(F)cc1	-2.08	0.517 µM [rising, single point]	
Cc1cccc2cc(C#N)c(N3CCC(O)CC3)nc12	16.2		6.51 µM [rising, single point]
Cc1ccc(NC(=O)COC(=O)C2(c3ccc(Cl)cc3)CCCC2)cc1	-20.9	2.91 µM [falling, partial curve]	
Cc1cccc(NC(=S)NNc2cccc(Cl)c2)c1	-13.3	29.1 µM [falling, partial curve, poor fit]	
COc1ccccc1C(=O)NC(CCSC)C(=O)N1CCN(C(C)=O)CC1 (stereo not given)	1.56		
O=C(CN1CCCCCC1)Nc1ccccc1F	-16.2		
Cc1ccc(NC(=O)CN2CCc3cc4c(cc3C2)OCCCO4)cc1C	-32.2		0.0058 µM [falling, full curve, poor fit]
O=C1C=CN(C(=O)Oc2ccccc2)CC1	-1.23	0.731 µM [rising, full curve]	

Carrying on.

SMILES | cell number change [%] | AC50 [1] | AC50 [2]
COc1ccc2oc(C(=O)N3CCN(C(=O)c4ccco4)CC3)c(C)c2c1 | -13.2 | 29.1 µM [falling, single point] | 
O=S(=O)([O-])CCC[n+]1ccc(Oc2ccccc2)cc1 | 0.549 | 0.58 µM [rising, single point] | 0.00461 µM [falling, full curve, poor fit]
C=CCc1c(C)nc(SCc2ccccc2)[nH]c1=O | -12.1 |  | 
Cc1csc(NC(=O)C2COc3ccccc3O2)n1 (stereo not given) | 23.9 | 0.58 µM [falling, single point] | 
CC(=O)N1CCN(S(=O)(=O)c2ccc(C)cc2)C1C (stereo not given) | -54.6 | 20.6 µM [falling, single point] | 20.6 µM [falling, single point]
CCCCC(CC)CN=C(N)NC(N)=NCCCCCCN=C(N)NC(N)=NCC(CC)CCCC (stereo not given) | -83.1 | 6.51 µM [falling, full curve] | 7.31 µM [falling, partial curve]
Cc1cc(C(=O)O)cc(S(=O)(=O)NNC(=O)c2cccs2)c1C | 49.6 | 0.58 µM [falling, single point] | 29.1 µM [rising, single point]
CCN(CC)S(=O)(=O)c1cccc(C(=O)N[C@H](C(=O)NCc2ccc(Cl)cc2)C(C)C)c1 | 72.2 | 23.1 µM [rising, single point] | 18.4 µM [rising, single point]
CC(C)C[C@H](NC(=O)c1nc[nH]c1C(=O)NC1CCNCC1)C(=O)OC(C)(C)C |  | 6.51 µM [falling, single point] | 6.51 µM [falling, single point]
CC1(C)CN(c2ccccc2)N(Cc2ccc(F)cc2)C1=O | -12.1 | 10.3 µM [falling, partial curve] | 
O=C(NNC1=Nc2cccc3cccc1c23)c1ccc(Br)cc1 | -6.07 |  | 0.146 µM [falling, full curve, poor fit]
CCOc1cnn(-c2ccccc2)c(=O)c1Cl | -21 | 3.26 µM [falling, single point] | 0.231 µM [falling, full curve, poor fit]
CC(C)OC(=O)c1cc(C(=O)c2cc(F)ccc2O)coc1=N |  | 1.3 µM [falling, full curve] | 
CC1(C)CN=C(N2CCN(C3=NCC(C)(C)S3)CC2)S1 | 3 |  | 
CN(C)CCn1c(=O)n(Cc2ccccc2)c(=O)c2c3c(sc21)CCCCC3 | 16.2 |  | 
CCOc1ccc2nc(NC(=O)CN3CCN(CC)CC3)sc2c1 | 0.824 |  | 
Cc1ccc(-n2c3nc(=O)[nH]c(=O)c-3cc3c(C)nn(-c4ccccc4)c32)c(C)c1 | 7.56 |  | 
CCN(CC)C(=O)Cn1c(=O)n(CCCC(=O)NCc2ccc3c(c2)OCO3)c(=O)c2sccc21 | 13.4 | 0.13 µM [falling, partial curve, poor fit] | 
O=Cc1cn(-c2ccccc2)nc1-c1cc2ccccc2oc1=O | 30.2 |  | 9.2 µM [rising, partial curve, poor fit]
O=C(/C=C/c1ccc(Cl)cc1)NCc1ccncc1 | 15 |  | 
